Laboratory results: PMC8674339
Results are given in words; binding and its absence hold for the method and conditions named. In cells and extracts the contact can be indirect. Here binding means that the protein was enriched with, or labelled near, the bait; the list need not be complete.

Sequences of proteins named here, by UniProt entry; tags and fusion partners are left off.
UniProt Q76MZ3: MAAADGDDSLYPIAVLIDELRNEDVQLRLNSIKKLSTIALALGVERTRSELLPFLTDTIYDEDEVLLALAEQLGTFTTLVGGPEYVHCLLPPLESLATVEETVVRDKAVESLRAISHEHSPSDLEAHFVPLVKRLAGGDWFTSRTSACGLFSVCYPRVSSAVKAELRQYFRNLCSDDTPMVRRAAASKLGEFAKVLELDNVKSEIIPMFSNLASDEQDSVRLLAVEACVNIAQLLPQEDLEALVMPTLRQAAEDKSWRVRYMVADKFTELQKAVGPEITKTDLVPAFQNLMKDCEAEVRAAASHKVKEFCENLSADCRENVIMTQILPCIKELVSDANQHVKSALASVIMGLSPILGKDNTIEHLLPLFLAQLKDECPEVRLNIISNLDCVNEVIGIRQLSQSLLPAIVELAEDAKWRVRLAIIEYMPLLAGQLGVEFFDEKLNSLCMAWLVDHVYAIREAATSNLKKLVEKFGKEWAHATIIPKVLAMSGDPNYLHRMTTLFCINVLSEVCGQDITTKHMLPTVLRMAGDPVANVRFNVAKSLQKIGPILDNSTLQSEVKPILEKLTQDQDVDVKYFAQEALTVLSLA
UniProt P70288: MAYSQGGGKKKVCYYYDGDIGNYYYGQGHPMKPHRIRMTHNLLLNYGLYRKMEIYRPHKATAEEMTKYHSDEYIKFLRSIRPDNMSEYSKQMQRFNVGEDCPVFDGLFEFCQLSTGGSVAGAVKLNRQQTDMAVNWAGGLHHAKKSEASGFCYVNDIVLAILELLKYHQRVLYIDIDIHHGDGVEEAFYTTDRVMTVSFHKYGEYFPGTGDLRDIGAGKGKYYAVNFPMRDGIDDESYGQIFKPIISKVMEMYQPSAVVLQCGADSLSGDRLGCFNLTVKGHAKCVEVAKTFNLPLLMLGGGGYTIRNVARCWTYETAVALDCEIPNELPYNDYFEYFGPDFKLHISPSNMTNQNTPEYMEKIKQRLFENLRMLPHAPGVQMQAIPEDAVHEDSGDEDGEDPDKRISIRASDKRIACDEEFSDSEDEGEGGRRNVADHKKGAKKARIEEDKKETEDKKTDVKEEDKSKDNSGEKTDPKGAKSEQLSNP
UniProt P62715: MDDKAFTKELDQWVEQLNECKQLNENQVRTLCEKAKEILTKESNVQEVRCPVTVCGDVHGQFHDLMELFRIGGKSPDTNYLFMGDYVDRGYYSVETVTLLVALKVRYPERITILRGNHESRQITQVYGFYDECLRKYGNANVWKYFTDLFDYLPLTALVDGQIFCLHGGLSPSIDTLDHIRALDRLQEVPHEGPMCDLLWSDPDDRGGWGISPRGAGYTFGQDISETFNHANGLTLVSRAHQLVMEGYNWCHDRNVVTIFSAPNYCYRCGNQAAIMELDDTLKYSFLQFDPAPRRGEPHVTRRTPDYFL

Molecular target: Ppp2r1a (PP2A scaffold protein, structural subunit A) (mouse (endogenous in intestinal organoids and CT26)) (UniProt Q76MZ3)
Experiment: affinity purification with mass spectrometry; wild-type mouse intestinal organoid lysate precipitated with a PPP2R1A-specific antibody (GTX102206) or isotype IgG control on Capturem Protein A columns; eluates trypsin digested, Q Exactive, MASCOT

| binding | Substance |
| --- | --- |
| binds | histone deacetylase (HDAC)2 (from UniProt P70288 1-488) |
| binds | protein phosphatase 2 catalytic subunit beta (PPP2CB) (from UniProt P62715 1-309) |
